Results are given in words; binding and its absence hold for the method and conditions named. For part of these data: In cells and extracts the contact can be indirect. Some entries that bind do so weakly or less than the wild type. For part of these data: Sequences can lack the tags named with a protein. Values belong to the molecule of their own block, whether it stands above or below them.
What was measured:
[1] = target: T1, zinc finger and BTB domain-containing protein 11 (ZBTB11), endogenous (human (endogenous in H1299)) (UniProt O95625); assay: re-ChIP-qPCR; formaldehyde-fixed H1299 chromatin; primary ChIP with anti-ZBTB11 antibody, then ChIP of SET; qPCR at MMP9 loci
T1 sequence: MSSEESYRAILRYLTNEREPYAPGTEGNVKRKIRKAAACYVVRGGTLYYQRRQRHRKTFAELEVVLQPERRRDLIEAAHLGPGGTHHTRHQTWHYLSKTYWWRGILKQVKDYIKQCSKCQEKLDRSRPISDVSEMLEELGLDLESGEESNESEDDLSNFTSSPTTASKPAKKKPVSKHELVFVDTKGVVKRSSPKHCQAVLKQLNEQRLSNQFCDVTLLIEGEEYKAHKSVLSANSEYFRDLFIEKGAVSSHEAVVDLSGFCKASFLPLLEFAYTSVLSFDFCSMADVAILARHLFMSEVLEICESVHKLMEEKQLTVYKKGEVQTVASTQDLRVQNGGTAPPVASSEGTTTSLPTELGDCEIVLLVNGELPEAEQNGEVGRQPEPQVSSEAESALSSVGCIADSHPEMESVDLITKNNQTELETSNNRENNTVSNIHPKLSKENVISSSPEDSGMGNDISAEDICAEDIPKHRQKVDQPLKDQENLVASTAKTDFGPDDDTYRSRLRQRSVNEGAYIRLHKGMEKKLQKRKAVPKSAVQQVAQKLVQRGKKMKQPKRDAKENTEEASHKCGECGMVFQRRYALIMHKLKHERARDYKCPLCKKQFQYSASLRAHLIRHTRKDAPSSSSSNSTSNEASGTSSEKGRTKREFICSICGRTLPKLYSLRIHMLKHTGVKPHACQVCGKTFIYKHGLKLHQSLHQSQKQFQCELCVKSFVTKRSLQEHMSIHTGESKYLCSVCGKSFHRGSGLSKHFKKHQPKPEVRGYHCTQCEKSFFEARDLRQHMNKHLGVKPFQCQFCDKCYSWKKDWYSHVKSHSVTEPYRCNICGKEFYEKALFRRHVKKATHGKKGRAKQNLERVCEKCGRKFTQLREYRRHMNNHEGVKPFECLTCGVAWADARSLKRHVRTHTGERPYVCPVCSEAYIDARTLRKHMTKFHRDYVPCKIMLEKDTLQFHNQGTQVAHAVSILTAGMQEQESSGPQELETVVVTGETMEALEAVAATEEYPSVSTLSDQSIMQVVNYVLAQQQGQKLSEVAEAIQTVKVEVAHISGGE

The chains behind the UniProt entries cited, without tags or fusion partners.
UniProt Q01105: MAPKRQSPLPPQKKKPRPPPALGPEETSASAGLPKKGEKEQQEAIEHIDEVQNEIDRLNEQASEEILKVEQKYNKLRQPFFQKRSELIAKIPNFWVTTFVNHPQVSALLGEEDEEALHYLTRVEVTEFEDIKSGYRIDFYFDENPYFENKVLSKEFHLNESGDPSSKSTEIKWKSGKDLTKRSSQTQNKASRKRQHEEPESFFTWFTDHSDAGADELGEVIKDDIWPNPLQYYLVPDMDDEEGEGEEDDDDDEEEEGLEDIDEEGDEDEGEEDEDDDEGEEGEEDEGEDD

[2] = target: T1, zinc finger and BTB domain-containing protein 11 (ZBTB11), endogenous (human (endogenous in H1299)); assay: co-IP; endogenous proteins in H1299 cells, precipitated with anti-SET or anti-ZBTB11 antibody and Protein A/G beads; NP40 buffer, 4 °C, washes with BC100 buffer
[3] = target: T2, S protein-Flag-streptavidin-binding protein-tagged ZBTB11 (UniProt O95625); assay: co-IP; HEK293T cells transiently transfected with Myc-SET with or without SFB-ZBTB11; NP40 lysis buffer, washes with BC100 buffer
T2 sequence: T1 sequence

[4] = target: T3, ZBTB11 fragment 522-568 aa (UniProt O95625); assay: pull-down; GST or GST-fusion proteins from E. coli immobilised on GST-Bind resin, incubated with purified SET or ZBTB11 for 1 h at 4 °C, washed three times with BC100 buffer (100 mM NaCl), eluted with Laemmli buffer; both purified
T3 sequence: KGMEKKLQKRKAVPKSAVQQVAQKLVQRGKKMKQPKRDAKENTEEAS

[5] = target: T4, ZBTB11 linker region (amino acids 313-568) (UniProt O95625); assay: as above
T4 sequence: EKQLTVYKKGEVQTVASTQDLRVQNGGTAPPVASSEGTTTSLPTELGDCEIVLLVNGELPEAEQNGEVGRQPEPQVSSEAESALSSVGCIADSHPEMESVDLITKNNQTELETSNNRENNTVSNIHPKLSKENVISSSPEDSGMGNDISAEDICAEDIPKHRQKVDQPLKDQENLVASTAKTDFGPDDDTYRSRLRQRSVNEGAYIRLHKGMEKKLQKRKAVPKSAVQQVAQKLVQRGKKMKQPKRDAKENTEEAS

[6] = target: T5, purified full-length ZBTB11 (UniProt O95625); assay: as above
T5 sequence: T1 sequence

[7] = target: SET (SE translocation), endogenous (human (endogenous in H1299)) (UniProt Q01105); assay: co-IP; endogenous proteins in H1299 cells, lysate in modified NP40 buffer with 1 mM MgCl2 and 250 U/ml benzonase to degrade DNA
Flag-HA-tagged SET = Flag-HA-tagged SET (UniProt Q01105); assay: co-IP; H1299-EV or H1299-FH-SET stable cells, complex purified by anti-Flag agarose, Western blot with a ZBTB11-specific antibody
[8] = target: SET (SE translocation), endogenous (human (endogenous in H1299)) (UniProt Q01105); assay: co-IP; endogenous proteins in H1299 cells, precipitated with anti-SET or anti-ZBTB11 antibody and Protein A/G beads; NP40 buffer, 4 °C, washes with BC100 buffer

Molecule: Myc-tagged SET (from UniProt Q01105 1-290)
binding [3]: binds

Molecule: purified full-length SET (from UniProt Q01105 1-290)
binding [4]: binds
binding [5]: binds
binding [6]: binds

Further lines, results first:

binding [1]: binds
binding [2]: binds
Molecule: SET (SE translocation), endogenous (from UniProt Q01105 1-290)

binding [7]: binds
binding (Flag-HA-tagged SET): binds
binding [8]: binds
B1: zinc finger and BTB domain-containing protein 11 (ZBTB11), endogenous (protein, UniProt O95625 1-1053)
chain: T1 sequence

— article PMC10867109
